Results from patent publication US8975412B2, “Substituted 4-cyano-3-phenyl-4-(pyridin-3-yl)butanoates, processes for preparation thereof and use thereof as herbicides and plant growth regulators” (Bayer Intellectual Property GmbH, priority 2011, dated 2015).
Some of these results come from one statement about several compounds together. Some ranges recur; such a range may be that of the whole group of compounds.

Key:
[1] = test system: a plurality of harmful plants; assay: Herbicidal pre-emergence action, greenhouse pot test; type: in vivo, monocotyledonous and dicotyledonous weed plants; conditions: pre-emergence method, 320 g or less of active substance per hectare, scored visually after about 3 weeks vs untreated controls
[2] = test system: a plurality of harmful plants; assay: Herbicidal post-emergence action, greenhouse pot test; type: in vivo, monocotyledonous and dicotyledonous weeds; conditions: post-emergence method, 320 g or less of active substance per hectare, rated visually after about 3 weeks vs untreated controls
Amaranthus retroflexus = assay: Herbicidal pre-emergence action; type: in vivo; conditions: pre-emergence method, 0.32 kg of active substance per hectare, scored visually after about 3 weeks
Avena fatua = assay: Herbicidal post-emergence action; type: in vivo; conditions: post-emergence method, 0.32 kg of active substance per hectare, rated visually after about 3 weeks
Veronica persica [3] = assay: Herbicidal post-emergence action; type: in vivo; conditions: post-emergence method, 0.32 kg of active substance per hectare, rated visually after about 3 weeks
Echinochloa crus-galli [4] = assay: Herbicidal post-emergence action; type: in vivo; conditions: post-emergence method, 0.32 kg of active substance per hectare, rated visually after about 3 weeks
Alopecurus myosuroides [5] = assay: Herbicidal post-emergence action; type: in vivo; conditions: post-emergence method, 0.32 kg of active substance per hectare, rated visually after about 3 weeks
Setaria virides [6] = assay: Herbicidal pre-emergence action; type: in vivo; conditions: pre-emergence method, 0.32 kg of active substance per hectare, scored visually after about 3 weeks
Cyprus esculentus = assay: Herbicidal post-emergence action; type: in vivo; conditions: post-emergence method, 0.32 kg of active substance per hectare, rated visually after about 3 weeks
Echinochloa crus-galli [7] = assay: Herbicidal pre-emergence action; type: in vivo; conditions: pre-emergence method, 0.32 kg of active substance per hectare, scored visually after about 3 weeks
Setaria virides [8] = assay: Herbicidal post-emergence action; type: in vivo; conditions: post-emergence method, 0.32 kg of active substance per hectare, rated visually after about 3 weeks
Alopecurus myosuroides [9] = assay: Herbicidal pre-emergence action; type: in vivo; conditions: pre-emergence method, 0.32 kg of active substance per hectare, scored visually after about 3 weeks
Polygonum convolvulus = assay: Herbicidal post-emergence action; type: in vivo; conditions: post-emergence method, 0.32 kg of active substance per hectare, rated visually after about 3 weeks
Veronica persica [10] = assay: Herbicidal pre-emergence action; type: in vivo; conditions: pre-emergence method, 0.32 kg of active substance per hectare, scored visually after about 3 weeks
Abutilon theophrasti = assay: Herbicidal post-emergence action; type: in vivo; conditions: post-emergence method, 0.32 kg of active substance per hectare, rated visually after about 3 weeks

Compound	herbicidal activity [1]	herbicidal activity [2]	also measured
COC(=O)C[C@@H](c1ccc(Cl)cc1)[C@H](C#N)c1cncc(Cl)c1 (racemic) [erythro-Ibb542]	70% to 100	70% to 100	
COC(=O)C[C@H](c1cc(F)ccc1F)[C@@H](C#N)c1cncc(Br)c1 [erythro-1-Ibb1105]	70% to 100	70% to 100	
COC(=O)C[C@H](c1c(F)cccc1F)[C@@H](C#N)c1cncc(Br)c1 [erythro-1-Ibb1106]	70% to 100	70% to 100	
COC(=O)C[C@@H](c1ccc(F)cc1)[C@H](C#N)c1cncc(Br)c1 (racemic) [erythro-Ibb1081]	70% to 100	70% to 100	
COC(=O)C[C@@H](c1cccc(F)c1F)[C@@H](C#N)c1cncc(Br)c1 (racemic) [threo-Ibb1103]	70% to 100	70% to 100	
COC(=O)C[C@@H](c1c(F)cccc1F)[C@H](C#N)c1cncc(Cl)c1 (racemic) [erythro-Ibb566]	70% to 100	70% to 100	
COC(=O)C[C@@H](c1cccc(Cl)c1)[C@@H](C#N)c1cncc(F)c1 (racemic) [threo-Ibb10]	70% to 100	70% to 100	herbicidal activity (Amaranthus retroflexus): 80-100%; herbicidal activity (Avena fatua): 80-100%; herbicidal activity (Veronica persica [3]): 80-100%; herbicidal activity (Echinochloa crus-galli [4]): 80-100%; herbicidal activity (Alopecurus myosuroides [5]): 80-100%; herbicidal activity (Setaria virides [6]): 90-100%; herbicidal activity (Cyprus esculentus): 80-100%; herbicidal activity (Echinochloa crus-galli [7]): 90-100%; herbicidal activity (Setaria virides [8]): 80-100%; herbicidal activity (Alopecurus myosuroides [9]): 80-100%; herbicidal activity (Polygonum convolvulus): 80-100%
COC(=O)CC(c1ccc(OC)cc1)C(C#N)c1cncc(Br)c1 (racemic) [erythro-Ibb1088]	70% to 100	70% to 100	herbicidal activity (Avena fatua): 80-100%; herbicidal activity (Echinochloa crus-galli [4]): 80-100%; herbicidal activity (Echinochloa crus-galli [7]): 90-100%; herbicidal activity (Veronica persica [10]): 90-100%; herbicidal activity (Alopecurus myosuroides [9]): 80-100%; herbicidal activity (Polygonum convolvulus): 80-100%
COC(=O)CC(c1ccc(F)cc1)C(C#N)c1cncc(Br)c1 (racemic) [threo-Ibb1081]	70% to 100	70% to 100	
COC(=O)CC(c1cccc(C#N)c1)C(C#N)c1cncc(Br)c1 (racemic) [threo-Ibb1093]	70% to 100	70% to 100	
COC(=O)C[C@@H](c1ccc(F)c(F)c1)[C@@H](C#N)c1cncc(Br)c1 (racemic) [threo-Ibb1107]	70% to 100	70% to 100	
COC(=O)C[C@@H](c1cc(F)ccc1F)[C@@H](C#N)c1cncc(Cl)c1 (racemic) [threo-Ibb565]	70% to 100	70% to 100	
COC(=O)C[C@@H](c1c(F)cccc1F)[C@@H](C#N)c1cncc(Cl)c1 (racemic) [threo-Ibb566]	70% to 100	70% to 100	
COC(=O)CC(c1cc(F)cc(F)c1)C(C#N)c1cncc(Br)c1 (racemic) [threo-Ibb1108]	70% to 100	70% to 100	herbicidal activity (Abutilon theophrasti): 80-100%; herbicidal activity (Avena fatua): 80-100%; herbicidal activity (Veronica persica [3]): 80-100%; herbicidal activity (Echinochloa crus-galli [4]): 80-100%; herbicidal activity (Setaria virides [6]): 90-100%; herbicidal activity (Cyprus esculentus): 80-100%; herbicidal activity (Echinochloa crus-galli [7]): 90-100%; herbicidal activity (Setaria virides [8]): 80-100%; herbicidal activity (Veronica persica [10]): 90-100%; herbicidal activity (Polygonum convolvulus): 80-100%
COC(=O)C[C@@H](c1ccc(Cl)cc1)[C@@H](C#N)c1cncc(Cl)c1 (racemic) [threo-Ibb542]	70% to 100	70% to 100	
COC(=O)C[C@@H](c1ccc(Cl)cc1)[C@@H](C#N)c1cncc(Br)c1 [threo-2-Ibb1082, Methyl (3R,4R)-4-cyano-4-(5-bromopyridin-3-yl)-3-(4-chlorophenyl)butanoate]	70% to 100	70% to 100	
COC(=O)C[C@@H](c1ccc(F)cc1F)[C@@H](C#N)c1cncc(Br)c1 (racemic) [threo-Ibb1104]	70% to 100	70% to 100	
COC(=O)C[C@H](c1cc(F)ccc1F)[C@H](C#N)c1cncc(Br)c1 [threo-1-Ibb1105]	70% to 100	70% to 100	
COC(=O)CC(c1ccc(C)cc1)C(C#N)c1cncc(Br)c1 (racemic) [erythro-Ibb1085]	70% to 100	70% to 100	
COC(=O)CC(c1cccc(F)c1F)C(C#N)c1cncc(Br)c1 (racemic) [erythro-Ibb1103]	70% to 100	70% to 100	

Compound	herbicidal activity [1]	herbicidal activity [2]	also measured
COC(=O)C[C@@H](c1ccc(C)cc1)[C@@H](C#N)c1cncc(Br)c1 (racemic) [threo-Ibb1085]	70% to 100	70% to 100	
COC(=O)C[C@@H](c1ccc(F)c(F)c1)[C@H](C#N)c1cncc(Br)c1 (racemic) [erythro-Ibb1107]	70% to 100	70% to 100	
COC(=O)C[C@@H](c1ccc(Cl)cc1)[C@H](C#N)c1cncc(Br)c1 [erythro-2-Ibb1082]	70% to 100	70% to 100	
COC(=O)C[C@@H](c1cccc(C#N)c1)[C@H](C#N)c1cncc(Br)c1 (racemic) [erythro-Ibb1093]	70% to 100	70% to 100	
COC(=O)CC(c1cccc(F)c1)C(C#N)c1cncc(Br)c1 (racemic) [erythro-Ibb1089]	70% to 100	70% to 100	herbicidal activity (Veronica persica [3]): 80-100%; herbicidal activity (Echinochloa crus-galli [4]): 80-100%; herbicidal activity (Setaria virides [8]): 80-100%; herbicidal activity (Veronica persica [10]): 90-100%
COC(=O)C[C@@H](c1cc(F)ccc1F)[C@H](C#N)c1cncc(Cl)c1 (racemic) [erythro-Ibb565]	70% to 100	70% to 100	
COC(=O)CC(c1ccccc1F)C(C#N)c1cncc(Br)c1 (mixture of isomers) [Ibb1096]	70% to 100	70% to 100	
COC(=O)C[C@H](c1ccc(Cl)cc1)[C@@H](C#N)c1cncc(Br)c1 [erythro-1-Ibb1082]	70% to 100	70% to 100	
COC(=O)C[C@@H](c1cccc([N+](=O)[O-])c1)[C@H](C#N)c1cncc(Br)c1 (racemic) [erythro-Ibb1094]	70% to 100	70% to 100	
COC(=O)C[C@H](c1ccc(Cl)cc1)[C@H](C#N)c1cncc(Br)c1 [threo-1-Ibb1082, Methyl (3S,4S)-4-cyano-4-(5-bromopyridin-3-yl)-3-(4-chlorophenyl)butanoate]	70% to 100	70% to 100	
COC(=O)C[C@@H](c1ccc(F)cc1F)[C@H](C#N)c1cncc(Br)c1 (racemic) [erythro-Ibb1104]	70% to 100	70% to 100	
COC(=O)C[C@H](c1c(F)cccc1F)[C@H](C#N)c1cncc(Br)c1 [threo-1-Ibb1106]	70% to 100	70% to 100	
COC(=O)C[C@@H](c1c(F)cccc1F)[C@@H](C#N)c1cncc(Br)c1 [threo-2-Ibb1106]	70% to 100	70% to 100	
COC(=O)C[C@@H](c1ccc(Cl)cc1)[C@H](C#N)c1cncc(C)c1 (racemic) [erythro-Ibb1622]	70% to 100	70% to 100	
COC(=O)CC(c1ccc(Cl)cc1)C(C#N)c1cncc(C)c1 (racemic) [threo-Ibb1622]	70% to 100	70% to 100	
COC(=O)CC(c1ccc(OC)c(F)c1)C(C#N)c1cncc(Br)c1 (racemic) [erythro-Ibb3783]	70% to 100	70% to 100	
COC(=O)C[C@@H](c1ccccc1)[C@H](C#N)c1cncc(Br)c1 (racemic) [erythro-Ibb1084]	70% to 100	70% to 100	herbicidal activity (Veronica persica [3]): 80-100%; herbicidal activity (Echinochloa crus-galli [4]): 80-100%; herbicidal activity (Echinochloa crus-galli [7]): 90-100%; herbicidal activity (Setaria virides [8]): 80-100%; herbicidal activity (Polygonum convolvulus): 80-100%
COC(=O)C[C@@H](c1ccc(OC)c(F)c1)[C@@H](C#N)c1cncc(Br)c1 (racemic) [threo-Ibb3783]	70% to 100	70% to 100	
COC(=O)C[C@@H](c1cccc(C)c1)[C@H](C#N)c1cncc(Br)c1 (racemic) [erythro-Ibb1092]	70% to 100	70% to 100	
COC(=O)CC(c1cccc([N+](=O)[O-])c1)C(C#N)c1cncc(Br)c1 (racemic) [threo-Ibb1094]	70% to 100	70% to 100	
